The supplement of paper PMC10849652
The list shows a part of the results.

Chains of the proteins cited; added tags and fusions are not shown. Lines headed by an entry give the natural chain unless they say otherwise; changes in a name come on top.
UniProt Q16851: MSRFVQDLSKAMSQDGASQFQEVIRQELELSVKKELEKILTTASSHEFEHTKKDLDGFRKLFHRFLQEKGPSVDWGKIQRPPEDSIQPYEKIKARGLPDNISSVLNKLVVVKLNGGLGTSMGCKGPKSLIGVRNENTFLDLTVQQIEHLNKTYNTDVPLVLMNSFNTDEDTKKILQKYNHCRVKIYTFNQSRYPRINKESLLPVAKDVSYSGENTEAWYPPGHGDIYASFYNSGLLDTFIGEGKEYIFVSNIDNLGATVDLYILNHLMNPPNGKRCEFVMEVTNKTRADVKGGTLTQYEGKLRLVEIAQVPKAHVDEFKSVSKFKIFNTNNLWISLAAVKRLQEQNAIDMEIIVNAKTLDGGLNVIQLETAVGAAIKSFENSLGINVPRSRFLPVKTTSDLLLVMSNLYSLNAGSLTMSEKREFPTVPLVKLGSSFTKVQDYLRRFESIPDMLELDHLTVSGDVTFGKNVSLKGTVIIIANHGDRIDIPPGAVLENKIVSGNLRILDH
UniProt P40818: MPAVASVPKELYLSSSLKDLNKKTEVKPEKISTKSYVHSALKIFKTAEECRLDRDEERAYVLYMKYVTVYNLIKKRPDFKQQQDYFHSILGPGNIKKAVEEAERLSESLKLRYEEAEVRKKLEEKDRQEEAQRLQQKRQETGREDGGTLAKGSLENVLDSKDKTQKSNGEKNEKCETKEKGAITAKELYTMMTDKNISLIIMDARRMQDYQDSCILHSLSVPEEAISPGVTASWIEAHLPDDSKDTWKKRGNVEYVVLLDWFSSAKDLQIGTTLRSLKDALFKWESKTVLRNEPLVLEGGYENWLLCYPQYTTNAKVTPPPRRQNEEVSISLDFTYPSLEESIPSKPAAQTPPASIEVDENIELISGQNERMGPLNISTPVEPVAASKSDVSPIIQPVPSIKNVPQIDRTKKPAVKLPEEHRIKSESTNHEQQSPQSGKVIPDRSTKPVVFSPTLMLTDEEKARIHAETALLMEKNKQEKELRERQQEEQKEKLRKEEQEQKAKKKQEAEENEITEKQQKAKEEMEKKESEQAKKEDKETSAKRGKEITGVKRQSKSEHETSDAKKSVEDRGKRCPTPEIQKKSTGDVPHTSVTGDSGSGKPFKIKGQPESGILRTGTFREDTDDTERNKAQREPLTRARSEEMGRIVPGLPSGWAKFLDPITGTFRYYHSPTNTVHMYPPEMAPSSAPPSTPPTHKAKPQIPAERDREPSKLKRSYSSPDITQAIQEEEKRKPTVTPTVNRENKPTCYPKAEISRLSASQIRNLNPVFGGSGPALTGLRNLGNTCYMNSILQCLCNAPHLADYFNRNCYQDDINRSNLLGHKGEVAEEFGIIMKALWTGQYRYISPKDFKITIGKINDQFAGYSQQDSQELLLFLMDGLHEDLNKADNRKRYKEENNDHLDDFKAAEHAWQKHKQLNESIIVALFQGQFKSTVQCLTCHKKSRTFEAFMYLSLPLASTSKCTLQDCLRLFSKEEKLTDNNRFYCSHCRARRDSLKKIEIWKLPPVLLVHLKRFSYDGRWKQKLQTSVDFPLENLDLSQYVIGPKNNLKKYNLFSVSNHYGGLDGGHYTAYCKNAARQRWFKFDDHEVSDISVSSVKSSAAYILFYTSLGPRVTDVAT
UniProt Q9Y3C8: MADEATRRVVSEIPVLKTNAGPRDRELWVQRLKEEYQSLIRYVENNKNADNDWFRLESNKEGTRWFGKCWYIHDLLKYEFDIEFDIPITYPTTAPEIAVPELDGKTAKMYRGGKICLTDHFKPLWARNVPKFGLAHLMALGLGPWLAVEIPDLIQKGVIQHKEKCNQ
UniProt P47985: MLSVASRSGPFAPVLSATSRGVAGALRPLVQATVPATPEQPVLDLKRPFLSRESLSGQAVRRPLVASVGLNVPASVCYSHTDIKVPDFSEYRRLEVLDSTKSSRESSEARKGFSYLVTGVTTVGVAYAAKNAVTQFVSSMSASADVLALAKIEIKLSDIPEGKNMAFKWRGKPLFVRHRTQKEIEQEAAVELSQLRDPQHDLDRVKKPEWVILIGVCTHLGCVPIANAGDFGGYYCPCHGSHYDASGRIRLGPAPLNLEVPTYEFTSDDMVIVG
UniProt Q04323: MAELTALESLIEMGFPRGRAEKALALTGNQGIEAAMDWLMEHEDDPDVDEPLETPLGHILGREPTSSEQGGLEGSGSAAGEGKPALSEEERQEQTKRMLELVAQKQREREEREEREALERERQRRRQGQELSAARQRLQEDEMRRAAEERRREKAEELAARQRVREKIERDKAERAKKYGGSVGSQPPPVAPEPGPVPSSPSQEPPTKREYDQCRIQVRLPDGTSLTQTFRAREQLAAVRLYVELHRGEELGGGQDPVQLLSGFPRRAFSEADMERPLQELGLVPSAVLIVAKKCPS
UniProt Q9HA47: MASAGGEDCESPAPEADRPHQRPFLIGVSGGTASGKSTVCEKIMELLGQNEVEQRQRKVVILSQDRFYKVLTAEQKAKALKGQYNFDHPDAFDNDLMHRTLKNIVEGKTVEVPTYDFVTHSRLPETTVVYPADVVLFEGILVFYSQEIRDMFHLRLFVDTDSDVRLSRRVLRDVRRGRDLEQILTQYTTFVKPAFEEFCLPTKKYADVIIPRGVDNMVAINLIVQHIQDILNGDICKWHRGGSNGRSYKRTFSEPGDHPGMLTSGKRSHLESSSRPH
UniProt Q96K76: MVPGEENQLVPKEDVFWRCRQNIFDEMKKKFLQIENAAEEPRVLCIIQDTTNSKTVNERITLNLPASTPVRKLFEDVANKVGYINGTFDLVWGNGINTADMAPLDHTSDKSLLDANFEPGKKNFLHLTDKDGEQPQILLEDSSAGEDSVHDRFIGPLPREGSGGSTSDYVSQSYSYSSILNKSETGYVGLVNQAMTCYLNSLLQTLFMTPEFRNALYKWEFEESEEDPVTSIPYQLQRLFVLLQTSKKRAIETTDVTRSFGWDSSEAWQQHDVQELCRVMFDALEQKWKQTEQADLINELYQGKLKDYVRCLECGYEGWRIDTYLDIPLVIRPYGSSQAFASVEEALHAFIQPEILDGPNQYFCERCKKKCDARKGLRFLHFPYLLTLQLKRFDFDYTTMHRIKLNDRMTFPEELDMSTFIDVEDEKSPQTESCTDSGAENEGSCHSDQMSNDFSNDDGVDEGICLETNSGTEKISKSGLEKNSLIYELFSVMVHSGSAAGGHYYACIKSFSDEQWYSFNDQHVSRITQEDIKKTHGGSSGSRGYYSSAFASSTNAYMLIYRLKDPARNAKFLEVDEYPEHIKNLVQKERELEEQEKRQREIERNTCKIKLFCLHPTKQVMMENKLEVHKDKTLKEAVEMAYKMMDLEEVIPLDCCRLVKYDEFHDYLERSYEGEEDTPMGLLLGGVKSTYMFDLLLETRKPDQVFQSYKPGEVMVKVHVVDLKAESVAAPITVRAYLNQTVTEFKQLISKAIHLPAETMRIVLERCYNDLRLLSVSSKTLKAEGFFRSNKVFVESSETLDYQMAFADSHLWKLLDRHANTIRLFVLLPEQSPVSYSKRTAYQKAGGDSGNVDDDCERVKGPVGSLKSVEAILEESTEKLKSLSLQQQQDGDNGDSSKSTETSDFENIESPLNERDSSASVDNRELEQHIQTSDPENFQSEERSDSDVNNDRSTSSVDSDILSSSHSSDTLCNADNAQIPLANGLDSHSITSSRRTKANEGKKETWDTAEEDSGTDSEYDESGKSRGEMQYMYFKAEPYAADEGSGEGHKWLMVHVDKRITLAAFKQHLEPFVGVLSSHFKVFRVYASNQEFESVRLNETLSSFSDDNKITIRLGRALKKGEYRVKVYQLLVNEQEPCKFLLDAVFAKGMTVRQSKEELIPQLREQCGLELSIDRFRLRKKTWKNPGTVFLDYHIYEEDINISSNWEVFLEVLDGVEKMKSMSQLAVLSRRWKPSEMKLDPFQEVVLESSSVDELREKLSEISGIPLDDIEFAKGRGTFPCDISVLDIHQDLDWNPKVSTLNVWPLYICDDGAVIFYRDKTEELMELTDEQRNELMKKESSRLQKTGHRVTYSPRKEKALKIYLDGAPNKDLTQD
UniProt Q6BDS2: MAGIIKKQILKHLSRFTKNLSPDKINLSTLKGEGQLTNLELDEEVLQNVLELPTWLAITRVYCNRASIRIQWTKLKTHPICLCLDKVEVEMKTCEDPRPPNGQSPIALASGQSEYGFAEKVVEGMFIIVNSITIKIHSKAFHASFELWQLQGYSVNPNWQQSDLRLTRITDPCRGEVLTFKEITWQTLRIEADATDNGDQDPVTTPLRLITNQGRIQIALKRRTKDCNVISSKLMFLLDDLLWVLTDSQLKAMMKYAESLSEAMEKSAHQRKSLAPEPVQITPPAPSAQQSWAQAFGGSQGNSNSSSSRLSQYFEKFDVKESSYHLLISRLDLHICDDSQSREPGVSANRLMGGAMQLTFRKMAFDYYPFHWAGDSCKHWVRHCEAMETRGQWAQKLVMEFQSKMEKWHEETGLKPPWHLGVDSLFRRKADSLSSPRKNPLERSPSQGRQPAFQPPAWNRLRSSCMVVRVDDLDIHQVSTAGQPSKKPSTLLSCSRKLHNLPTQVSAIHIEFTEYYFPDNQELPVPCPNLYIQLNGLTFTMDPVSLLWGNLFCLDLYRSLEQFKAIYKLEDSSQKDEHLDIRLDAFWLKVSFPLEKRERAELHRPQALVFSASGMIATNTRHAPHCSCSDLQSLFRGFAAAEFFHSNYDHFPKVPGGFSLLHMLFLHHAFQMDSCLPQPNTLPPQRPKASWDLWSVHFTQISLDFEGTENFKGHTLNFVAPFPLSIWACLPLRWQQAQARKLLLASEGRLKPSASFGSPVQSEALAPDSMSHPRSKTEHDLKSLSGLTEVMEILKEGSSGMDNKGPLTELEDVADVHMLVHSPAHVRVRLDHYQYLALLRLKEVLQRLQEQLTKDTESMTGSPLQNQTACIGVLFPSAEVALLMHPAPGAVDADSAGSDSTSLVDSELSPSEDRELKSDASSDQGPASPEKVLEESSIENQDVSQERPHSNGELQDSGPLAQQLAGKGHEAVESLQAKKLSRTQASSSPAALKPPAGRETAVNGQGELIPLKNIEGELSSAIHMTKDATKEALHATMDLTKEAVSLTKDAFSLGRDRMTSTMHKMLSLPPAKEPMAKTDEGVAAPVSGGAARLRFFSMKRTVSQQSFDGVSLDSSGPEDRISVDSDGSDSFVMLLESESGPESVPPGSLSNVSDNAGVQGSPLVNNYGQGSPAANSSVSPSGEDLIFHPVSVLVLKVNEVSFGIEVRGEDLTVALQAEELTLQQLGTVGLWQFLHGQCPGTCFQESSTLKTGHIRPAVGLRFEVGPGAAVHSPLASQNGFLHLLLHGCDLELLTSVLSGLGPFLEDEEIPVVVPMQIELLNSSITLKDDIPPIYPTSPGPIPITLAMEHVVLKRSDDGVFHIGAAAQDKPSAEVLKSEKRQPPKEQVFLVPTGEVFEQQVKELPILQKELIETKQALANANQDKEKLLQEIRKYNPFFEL
UniProt A6NIH7: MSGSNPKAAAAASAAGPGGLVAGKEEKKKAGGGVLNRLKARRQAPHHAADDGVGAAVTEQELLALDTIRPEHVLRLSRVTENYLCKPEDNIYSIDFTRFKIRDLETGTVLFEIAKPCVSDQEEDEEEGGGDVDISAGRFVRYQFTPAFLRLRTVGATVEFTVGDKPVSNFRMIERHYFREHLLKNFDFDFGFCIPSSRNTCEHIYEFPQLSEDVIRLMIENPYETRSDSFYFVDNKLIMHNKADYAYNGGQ
UniProt Q96LJ8: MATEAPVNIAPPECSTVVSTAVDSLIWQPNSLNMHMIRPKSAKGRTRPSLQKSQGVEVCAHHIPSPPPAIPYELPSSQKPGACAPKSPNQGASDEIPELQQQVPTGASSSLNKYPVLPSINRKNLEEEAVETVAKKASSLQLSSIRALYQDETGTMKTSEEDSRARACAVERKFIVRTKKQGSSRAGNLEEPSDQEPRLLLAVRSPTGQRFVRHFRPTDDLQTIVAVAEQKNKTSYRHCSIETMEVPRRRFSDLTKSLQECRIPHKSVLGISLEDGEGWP
UniProt P54578: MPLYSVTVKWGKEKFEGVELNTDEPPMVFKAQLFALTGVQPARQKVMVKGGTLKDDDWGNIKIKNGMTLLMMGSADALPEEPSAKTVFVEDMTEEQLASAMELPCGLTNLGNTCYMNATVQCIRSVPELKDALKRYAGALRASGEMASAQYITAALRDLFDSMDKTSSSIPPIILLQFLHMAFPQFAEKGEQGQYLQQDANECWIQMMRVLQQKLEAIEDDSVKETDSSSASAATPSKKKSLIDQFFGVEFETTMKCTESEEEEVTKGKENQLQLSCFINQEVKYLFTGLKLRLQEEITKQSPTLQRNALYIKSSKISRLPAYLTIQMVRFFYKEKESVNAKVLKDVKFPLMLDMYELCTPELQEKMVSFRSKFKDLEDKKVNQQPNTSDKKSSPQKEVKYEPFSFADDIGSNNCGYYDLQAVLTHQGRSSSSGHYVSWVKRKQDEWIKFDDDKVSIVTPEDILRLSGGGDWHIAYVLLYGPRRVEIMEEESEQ

Tests used:
Experiment in all cases: log2 fold change, soluble protein after heating vs DMSO (PISA); higher = thermal stabilisation; K562 cells, 10 uM, 30 min; active = over 0.2 and 3.5 SD of the protein, either way, in both replicates (recomputed)
[1] = compound: CC[C@@H]1C(=O)N(C)c2cnc(Nc3ccc(C(=O)NC4CCN(C)CC4)cc3OC)nc2N1C1CCCC1
Outline: (§1)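 K562 cells (2×10^6 cells/mL) were treated with 10 μM compound for 30 min, and aliquots were heated for 3 min over 48°C-58°C. Pooled aliquots were extracted in PBS with 0.5% NP-40 at 4°C, and the supernatant after 21,000xg for 90 min was measured by TMTpro 16plex LC-MS/MS with channel sums equalised. Reported thermal stability, relative to control samples and from duplicates, is a log2 fold change.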

volasertib = compound: CC[C@@H]1C(=O)N(C)c2cnc(Nc3ccc(C(=O)N[C@H]4CC[C@H](N5CCN(CC6CC6)CC5)CC4)cc3OC)nc2N1C(C)C [volasertib]
Outline: as §1

[2] = compound: CC[C@H](C)N1C=C(C2=C(C=C(C=C21)C3=CN=C(C=C3)N4CCNCC4)C(=O)NCC5=C(C=C(NC5=O)C)C)C
Outline: as §1

epoxomicin = compound: CC[C@H](C)[C@@H](C(=O)N[C@@H]([C@@H](C)O)C(=O)N[C@@H](CC(C)C)C(=O)[C@]1(CO1)C)NC(=O)[C@H]([C@@H](C)CC)N(C)C(=O)C [epoxomicin]
Outline: as §1

[3] = compound: CCn1c(C(=O)N(C2CC2)C2CC2)cc2c3c(ncn3C)c(Nc3cc(C)n(C)n3)nc21
Outline: as §1

[4] = compound: CCn1cc(-c2ccnc3[nH]c(-c4cccc(CN(C)C)c4)cc23)c(-c2ccc(NC(=O)N(C)C)cc2)n1
Outline: as §1

[5] = compound: CN(C)CC(=O)Nc1ccc2[nH]c(=O)c3ccccc3c2c1
Outline: as §1

rosiglitazone = compound: CN(CCOC1=CC=C(C=C1)C[C@H]2C(=O)NC(=O)S2)C3=CC=CC=N3 (racemic) [rosiglitazone]
Outline: as §1

[6] = compound: CN1C2=C(C3=C1C(=O)N(N=C3)CC4=CC(=CC=C4)N)SC(=C2)S(=O)C
Outline: as §1

[7] = compound: CN1CCC(CNc2ccc3ncc(-c4cccc(OC(F)(F)F)c4)n3n2)CC1
Outline: as §1

saracatinib = compound: CN1CCN(CCOc2cc(OC3CCOCC3)c3c(Nc4c(Cl)ccc5c4OCO5)ncnc3c2)CC1 [saracatinib]
Outline: as §1

sotrastaurin = compound: CN1CCN(c2nc(C3=C(c4c[nH]c5ccccc45)C(=O)NC3=O)c3ccccc3n2)CC1 [sotrastaurin]
Outline: as §1

alvocidib = compound: CN1CC[C@H](c2c(O)cc(O)c3c(=O)cc(-c4ccccc4Cl)oc23)[C@H](O)C1 [alvocidib]
Outline: as §1

Tubastatin A = compound: CN1CCc2c(c3ccccc3n2Cc2ccc(C(=O)NO)cc2)C1 [Tubastatin A]
Outline: as §1

[8] = compound: CNC(=O)C1=CC=CC=C1NC2=NC(=NC=C2Cl)NC3=C(C=C(C=C3)N4CCOCC4)OC
Outline: as §1

defactinib = compound: CNC(=O)c1ccc(Nc2ncc(C(F)(F)F)c(NCc3nccnc3N(C)S(C)(=O)=O)n2)cc1 [defactinib]
Outline: as §1

rucaparib = compound: CNCc1ccc(-c2[nH]c3cc(F)cc4c3c2CCNC4=O)cc1 [rucaparib]
Outline: as §1

[9] = compound: CNc1nc(-c2ccc3c(N)n[nH]c3c2)cc(N2C[C@@H](C(=O)NC3CCCCC3)CC[C@H]2C)n1
Outline: as §1

encorafenib = compound: COC(=O)N[C@@H](C)CNc1nccc(-c2cn(C(C)C)nc2-c2cc(Cl)cc(NS(C)(=O)=O)c2F)n1 [encorafenib]
Outline: as §1

[10] = compound: COC(=O)[C@H](CCSC)NC(=O)C1=C(C=C(C=C1)NC[C@H](CS)N)C2=CC=CC=C2
Outline: as §1

Target	log2 fold change [1]	log2 fold change (volasertib)	log2 fold change [2]	log2 fold change (epoxomicin)	log2 fold change [3]	log2 fold change [4]	log2 fold change [5]	log2 fold change (rosiglitazone)	log2 fold change [6]	log2 fold change [7]	log2 fold change (saracatinib)	log2 fold change (sotrastaurin)	log2 fold change (alvocidib)	log2 fold change (Tubastatin A)	log2 fold change [8]	log2 fold change (defactinib)	log2 fold change (rucaparib)	log2 fold change [9]	log2 fold change (encorafenib)	log2 fold change [10]
UGP2 (UniProt Q16851)	inactive: 0.026	inactive: 0.057	inactive: -0.001	inactive: 0.023	inactive: 0.006	inactive: -0.005	inactive: -0.016	inactive: -0.003	inactive: -0.053	inactive: -0.053	inactive: 0.004	inactive: 0.003	inactive: -0.023	inactive: -0.019	inactive: -0.013	inactive: -0.004	inactive: -0.05	inactive: -0.021	inactive: -0.017	inactive: 0.012
USP8 (UniProt P40818)	inactive: -0.042	inactive: -0.298	inactive: -0.072	inactive: -0.012	inactive: -0.09	inactive: -0.024	inactive: 0.017	inactive: -0.012	inactive: 0.041	inactive: -0.188	inactive: -0.129	inactive: -0.176	inactive: -0.009	inactive: 0.035	inactive: 0.042	inactive: -0.093	inactive: 0.091	inactive: 0.042	inactive: 0.118	inactive: -0.133
UFC1 (UniProt Q9Y3C8)	inactive: -0.042	inactive: 0.055	inactive: -0.004	inactive: -0.036	inactive: -0.014	inactive: -0.012	inactive: -0.052	inactive: 0.034	inactive: -0.083	inactive: 0.016	inactive: 0.059	inactive: 0.018	inactive: -0.032	inactive: -0.022	inactive: -0.031	inactive: 0.005	inactive: 0.033	inactive: -0.001	inactive: -0.085	inactive: 0.062
UBFD1 (UniProt O14562)	inactive: -0.053	inactive: -0.166	inactive: 0.015	inactive: -0.034	inactive: -0.027	inactive: -0.039	inactive: 0.014	inactive: 0.048	inactive: -0.063	inactive: -0.084	inactive: -0.03	inactive: -0.013	inactive: -0.058	inactive: 0.07	inactive: 0.007	inactive: -0.021	inactive: -0.041	inactive: -0.025	inactive: 0.007	inactive: -0.017
UQCRFS1 (UniProt P47985)	inactive: -0.036	inactive: 0.075	inactive: -0.017	inactive: 0.07	inactive: 0.037	inactive: 0.041	inactive: 0	inactive: 0.015	inactive: -0.032	inactive: 0.032	inactive: -0.013	inactive: 0.009	inactive: -0.006	inactive: -0.014	inactive: 0.059	inactive: -0.034	inactive: -0.042	inactive: -0.048	inactive: -0.046	inactive: 0.023
UBXN1 (UniProt Q04323)	inactive: 0.002	inactive: 0.008	inactive: -0.015	inactive: 0.1	inactive: 0.008	inactive: -0.016	inactive: 0	inactive: 0.014	inactive: -0.024	inactive: -0.157	inactive: 0.007	inactive: -0.075	inactive: -0.063	inactive: 0.045	inactive: -0.013	inactive: -0.041	inactive: 0.024	inactive: 0	inactive: -0.019	inactive: 0.005
VCL (UniProt P18206)	inactive: 0.018	inactive: 0.084	inactive: -0.037	inactive: 0.02	inactive: 0.012	inactive: 0.012	inactive: -0.015	inactive: 0.001	inactive: -0.041	inactive: 0.04	inactive: 0.058	inactive: 0.014	inactive: 0.018	inactive: -0.034	inactive: -0.03	inactive: 0.004	inactive: -0.076	inactive: -0.015	inactive: -0.002	inactive: 0.027
UCK1 (UniProt Q9HA47)	inactive: -0.022	inactive: -0.008	inactive: 0.047	inactive: 0.084	inactive: 0.043	inactive: -0.048	inactive: 0.002	inactive: 0.037	inactive: -0.048	inactive: 0.008	inactive: -0.031	inactive: -0.003	inactive: -0.01	inactive: -0.017	inactive: -0.029	inactive: -0.031	inactive: 0.011	inactive: -0.056	inactive: 0.054	inactive: 0.028
USP47 (UniProt Q96K76)	inactive: -0.066	inactive: -0.349	inactive: 0.086	inactive: -0.159	inactive: -0.064	inactive: 0.014	inactive: 0.066	inactive: 0.029	inactive: 0.127	inactive: -0.09	inactive: -0.077	inactive: -0.121	inactive: 0.027	inactive: 0.007	inactive: -0.012	inactive: -0.038	inactive: 0.145	inactive: 0.038	inactive: 0.123	inactive: -0.042
USP34 (UniProt Q70CQ2)	inactive: -0.215	active: -0.455	inactive: -0.023	inactive: 0.02	–	inactive: -0.043	inactive: 0.014	–	inactive: 0.015	inactive: -0.201	inactive: 0.006	inactive: -0.102	–	inactive: 0.069	inactive: -0.049	inactive: -0.164	inactive: -0.055	inactive: -0.015	inactive: 0.08	inactive: 0.002
UHRF1BP1 (UniProt Q6BDS2)	inactive: 0.137	inactive: 0.131	inactive: 0.036	inactive: -0.067	–	inactive: -0.105	inactive: 0.012	–	inactive: -0.09	active: 0.211	inactive: 0.011	inactive: 0.049	–	inactive: 0.016	inactive: -0.013	inactive: -0.064	inactive: -0.007	inactive: 0.048	inactive: -0.012	inactive: 0.017
UBR3 isoform 4 (UniProt Q6ZT12)	inactive: -0.312	inactive: -0.374	–	inactive: 0.407	inactive: -0.11	–	inactive: -0.014	inactive: 0.316	inactive: 0.216	–	inactive: 0	inactive: -0.185	inactive: -0.027	inactive: 0.096	inactive: 0.32	inactive: -0.027	inactive: -0.158	inactive: -0.008	inactive: 0.157	inactive: -0.085
ULBP2 (UniProt Q9BZM5)	inactive: -0.036	inactive: 0.251	inactive: -0.008	inactive: 0.108	–	–	–	–	–	–	–	inactive: -0.035	inactive: -0.043	inactive: -0.188	–	–	inactive: -0.035	–	inactive: 0.049	–
UNC119B (UniProt A6NIH7)	inactive: -0.168	inactive: 0.066	inactive: -0.224	–	–	inactive: -0.104	inactive: -0.023	–	inactive: 0.004	inactive: 0.047	inactive: -0.076	inactive: 0.013	–	inactive: 0.124	inactive: -0.031	inactive: -0.064	inactive: 0.133	inactive: 0.316	inactive: 0.026	inactive: -0.048
USP13 (UniProt Q92995)	inactive: -0.217	inactive: -0.012	inactive: -0.045	–	inactive: 0.076	–	inactive: -0.029	inactive: -0.013	inactive: -0.036	–	inactive: -0.007	inactive: 0.064	inactive: -0.027	inactive: -0.101	inactive: 0.076	inactive: -0.032	inactive: 0.024	inactive: 0.006	inactive: -0.067	inactive: 0.027
UBXN10 (UniProt Q96LJ8)	inactive: -0.057	inactive: -0.319	inactive: 0.156	inactive: 0.127	–	inactive: 0.014	inactive: -0.088	–	inactive: 0.087	inactive: -0.103	inactive: 0.111	inactive: 0.122	–	inactive: 0.036	inactive: -0.152	inactive: 0.254	inactive: -0.05	inactive: -0.049	inactive: -0.074	inactive: 0.014
USP14 (UniProt P54578)	inactive: -0.08	inactive: -0.197	inactive: 0.053	inactive: 0.106	–	inactive: -0.011	inactive: 0.003	–	inactive: -0.082	inactive: -0.072	inactive: -0.007	inactive: -0.013	–	inactive: 0.033	inactive: 0.012	inactive: -0.064	inactive: -0.025	inactive: -0.01	inactive: 0.044	inactive: -0.021
UTP14A (UniProt Q9BVJ6)	inactive: 0.092	inactive: 0.176	inactive: 0.028	inactive: -0.144	–	inactive: 0.106	inactive: -0.136	–	inactive: 0.263	inactive: 0.106	inactive: -0.023	inactive: -0.017	–	inactive: 0.163	inactive: 0.024	inactive: 0.055	inactive: 0.15	inactive: 0.066	inactive: 0.124	inactive: 0.021

Copied from the listing (4 entries):
Target	log2 fold change [1]	log2 fold change (volasertib)	log2 fold change [2]	log2 fold change (epoxomicin)	log2 fold change [3]	log2 fold change [4]	log2 fold change [5]	log2 fold change (rosiglitazone)	log2 fold change [6]	log2 fold change [7]	log2 fold change (saracatinib)	log2 fold change (sotrastaurin)	log2 fold change (alvocidib)	log2 fold change (Tubastatin A)	log2 fold change [8]	log2 fold change (defactinib)	log2 fold change (rucaparib)	log2 fold change [9]	log2 fold change (encorafenib)	log2 fold change [10]
USP8 (UniProt P40818)	inactive: -0.042	inactive: -0.298	inactive: -0.072	inactive: -0.012	inactive: -0.09	inactive: -0.024	inactive: 0.017	inactive: -0.012	inactive: 0.041	inactive: -0.188	inactive: -0.129	inactive: -0.176	inactive: -0.009	inactive: 0.035	inactive: 0.042	inactive: -0.093	inactive: 0.091	inactive: 0.042	inactive: 0.118	inactive: -0.133
UFC1 (UniProt Q9Y3C8)	inactive: -0.042	inactive: 0.055	inactive: -0.004	inactive: -0.036	inactive: -0.014	inactive: -0.012	inactive: -0.052	inactive: 0.034	inactive: -0.083	inactive: 0.016	inactive: 0.059	inactive: 0.018	inactive: -0.032	inactive: -0.022	inactive: -0.031	inactive: 0.005	inactive: 0.033	inactive: -0.001	inactive: -0.085	inactive: 0.062
UBFD1 (UniProt O14562)	inactive: -0.053	inactive: -0.166	inactive: 0.015	inactive: -0.034	inactive: -0.027	inactive: -0.039	inactive: 0.014	inactive: 0.048	inactive: -0.063	inactive: -0.084	inactive: -0.03	inactive: -0.013	inactive: -0.058	inactive: 0.07	inactive: 0.007	inactive: -0.021	inactive: -0.041	inactive: -0.025	inactive: 0.007	inactive: -0.017
UQCRFS1 (UniProt P47985)	inactive: -0.036	inactive: 0.075	inactive: -0.017	inactive: 0.07	inactive: 0.037	inactive: 0.041	inactive: 0	inactive: 0.015	inactive: -0.032	inactive: 0.032	inactive: -0.013	inactive: 0.009	inactive: -0.006	inactive: -0.014	inactive: 0.059	inactive: -0.034	inactive: -0.042	inactive: -0.048	inactive: -0.046	inactive: 0.023
